# Measured values: the supplement of paper PMC4683952
# Some of the results follow. Cut-off read from the data, not from the text of the source: active = 2 or more and inactive = the rest. Single values are uncertain here, since repeats match poorly.
# Test system: Lgr5 (MarsCy1-Lgr5-EGFP, U2OS)
# Assay: cell-surface Lgr5 expression (SCi1 fluorescence, background-subtracted) relative to WT DMSO (fold of DMSO control); higher = more Lgr5 at the plasma membrane
# Settings: U2OS MarsCy1-Lgr5-EGFP stable; treatment time: overnight; library: ActiProbe-5K (TimTec); 25 µM
row,Structure (SMILES),cell-surface Lgr5 expression
1,S=C1NCN(CN2CCN(CN3CNC(=S)NC3)CC2)CN1,inactive: 1.75
2,CCn1ncc(Cn2nc(C)c(N)c2C)c1C,inactive: 1.48
3,Cc1cccc2c1N(C)/C(=C/c1cccc[n+]1C)C=C2,inactive: 1.07
4,CSc1ccc(/C=N\c2ccc3cc4ccc(/N=C\c5ccc(SC)cc5)cc4nc3c2)cc1,inactive: 1.7
5,O=C1[C@@H]2OC[C@@H](O2)[C@@H]2[C@@H]1[C@H]1c3ccccc3C=CN1[C@H]2C(=O)C12CC3CC(CC(C3)C1)C2,inactive: 1.24
6,CC(C)CC(NC(=O)C1CCCC1)C(N)=O (stereo not given),inactive: 1.11
7,O=C1NCCN1CCNS(=O)(=O)c1ccc(F)cc1,inactive: 1.28
8,CS(=O)(=O)N1CCN(S(C)(=O)=O)C(=O)C1,inactive: 1.06
9,O=C(Cn1cc(Cl)c([N+](=O)[O-])n1)N1CCNCC1,inactive: 1.33
10,N#Cc1c(SCC(=O)Nc2nccs2)sc2c(O)nc(=O)[nH]c12,inactive: 1.24
11,CS(=O)(=O)Oc1ccc(/C=N\c2cccc(C(F)(F)F)c2)cc1,inactive: 1.12
12,Brc1ccc(-c2cs/c(=N\c3ccccc3)[nH]2)cc1,inactive: 1.46
13,O=[N+]([O-])c1ccc2nc(Cl)c(Cl)nc2c1,inactive: 1.31
14,Cc1ccnc2c1ccc1cccnc12,inactive: 0.416
15,CCCCCCOC(=O)Nc1nnc(SCC)s1,inactive: 1.17
16,COc1ccc(C2NCCc3nc[nH]c32)cc1CSC1=NC2CCCCC2N1.Cl (stereo not given),inactive: 1.2
17,CCn1cc(C2CC(C(F)(F)F)n3nccc3N2)c(C)n1 (stereo not given),inactive: 1.33
18,CSc1nc2ccc(/N=C\c3ccc(Sc4nnnn4-c4ccccc4)o3)cc2s1,active: 2.01
19,CS(=O)(=O)N1CCc2cc(S(=O)(=O)Nc3ccc4c(c3)OCO4)ccc21,inactive: 1.21
20,NNC(=O)c1csc2c1CCCC2,inactive: 1.22
21,O=C(O)C1CSC(C2CCCCC2)N1 (stereo not given),inactive: 1.26
22,CC(=O)Nc1sc2c(c1-c1nsc(=O)o1)CCCC2,inactive: 1.39
23,CN(C)c1ccc(Br)c([N+](=O)[O-])c1,inactive: 1.14
24,Nc1ccccc1-n1ccnc1,inactive: 1.27
25,Nc1ncnc2c1nc(Cl)n2[C@@H]1O[C@H](CO)[C@H](O)[C@H]1O,inactive: 1.44
26,Brc1ccc2c(c1)CCCN2,inactive: 0.874
27,Cc1sc(-n2cccc2)c(CO)c1C,inactive: 1.26

# Gathered by group, the entries above containing an NH in an aromatic ring.
row,Structure (SMILES),cell-surface Lgr5 expression
10,N#Cc1c(SCC(=O)Nc2nccs2)sc2c(O)nc(=O)[nH]c12,inactive: 1.24
12,Brc1ccc(-c2cs/c(=N\c3ccccc3)[nH]2)cc1,inactive: 1.46
16,COc1ccc(C2NCCc3nc[nH]c32)cc1CSC1=NC2CCCCC2N1.Cl (stereo not given),inactive: 1.2

# Further records follow.

row,Structure (SMILES),cell-surface Lgr5 expression
1,O=C(NC1CCCCC1NC(=O)C1CCCCC1)C1CCCCC1 (stereo not given),inactive: 1.06
2,O=C(NC1CCCCCC1)C1CC1,inactive: 0.941
3,Cc1nn(CCc2nnc(C(C)n3ncc(Cl)c3C)o2)c(C)c1Cl (stereo not given),inactive: 1.09
4,COC(=O)C1=C(C)NC2=C(C(=O)CC(C)(C)C2)C1c1cc(Br)c(C)s1 (stereo not given),inactive: 1.36
5,Cc1cc(S(=O)(=O)NCc2ccco2)c(C)s1,inactive: 0.963
6,CC12CN3CCN(CC(C3)C1(O)CN1CCOCC1)C2 (stereo not given),inactive: 1.12
7,CNC(C)c1cccs1.Cl (stereo not given),inactive: 1.18
8,O=C(NCCC1=CCCCC1)c1ccc(Br)o1,inactive: 0.92
9,Fc1ccc(C2Nc3cccc4cccc(c34)N2)cc1,inactive: 0.935
10,COC(=O)c1c(NC(C)=O)sc2c1C(C(=O)OC)CC2 (stereo not given),inactive: 1.43
11,OC1CCCc2c1[nH]c1ccc(Br)cc21 (stereo not given),inactive: 1.24
12,c1cc2c(s1)C1CCCCC1OC21C2CC3CC(C2)CC1C3 (stereo not given),inactive: 1.06
13,O=C([O-])CCCC(=O)c1c[nH]c2ccccc12.[Na+],inactive: 0.931
14,CC1=C(Cl)c2ccc(C)cc2S1(=O)=O,inactive: 1.37
15,Cc1nc2c(Br)cc(Br)cc2c(=O)o1,inactive: 0.996
16,NCCNC(=O)Cn1cc([N+](=O)[O-])cn1,inactive: 1.3
17,Cc1nnc(-c2c[nH]nc2N)[nH]1,inactive: 1.01
18,O=S(=O)([O][K])N1C(O)C(O)N(S(=O)(=O)[O][K])C(O)C1O (stereo not given),inactive: 1.14
19,Cc1oc(C(=O)O)cc1CSCc1cc(C(=O)O)c(C)o1,inactive: 1.28
20,CC(C)Sc1nc2c(N)ncnc2[nH]1,inactive: 1.04
21,O=C(CC1CCS(=O)(=O)C1)Nc1ccc[nH]c1=O (stereo not given),inactive: 1.36
22,Nc1nc(C2CC2)c(Sc2sc(N)nc2C2CC2)s1,inactive: 1.49
23,O=S(=O)(Nc1ccc(F)cc1F)c1ccc2c(c1)OCCO2,inactive: 1.35
24,Cc1cc(C)c(Cc2c(C)c(/C=N\O)c(C)c(-c3c(C)cc(C)c(/C=N\O)c3C)c2C)c(C)c1/C=N\O,inactive: 1.09
25,Nc1nc2c(ncn2COCCO)c(=O)[nH]1,inactive: 1.02
26,Cc1ccnc(/N=N/c2cc(C)ccn2)c1,inactive: 0.915
27,COc1cccc(-c2nnc3n2N=C(c2ccc(OC)c(OC)c2)CS3)c1,inactive: 0.878

# Two entries from above, bar-delimited:
row | Structure (SMILES) | cell-surface Lgr5 expression
1 | O=C(NC1CCCCC1NC(=O)C1CCCCC1)C1CCCCC1 (stereo not given) | inactive: 1.06
26 | Cc1ccnc(/N=N/c2cc(C)ccn2)c1 | inactive: 0.915

# Next part

row,Structure (SMILES),cell-surface Lgr5 expression
1,S=C(Nc1cccnc1)NC1CCCCC1,inactive: 1.08
2,NS(=O)(=O)c1ccc(Cl)cc1,inactive: 1.18
3,COc1nc(NCCN2CCOCC2)nc(OC)n1,inactive: 1.26
4,O=C1CS/C(=N/c2ccn(C34CC5CC(CC(C5)C3)C4)n2)N1CC1CCCO1 (stereo not given),inactive: 1.17
5,Clc1ccccc1CO/N=C1/CCCc2nonc21,inactive: 0.79
6,C=CCSc1nn2c(=O)c3ccccc3nc2s1,inactive: 1.22
7,Cc1cc(C)nc(SCCS(=O)(=O)c2ccc(C(C)(C)C)cc2)n1,inactive: 0.996
8,c1ccc2c(N3CCN(c4ncnc5ccccc45)CC3)ncnc2c1,inactive: 0.956
9,CN(C1CCS(=O)(=O)C1)S(=O)(=O)c1ccc(N2CCCC2=O)cc1 (stereo not given),inactive: 1.32
10,OC12CC(C3COC1O3)n1c(nc3ccccc31)CO2 (stereo not given),inactive: 1.54
11,O=C(NNC(=O)c1cccs1)c1ccc(Br)o1,inactive: 0.973
12,CCOC(=O)c1sc2nc3n(c(=O)c2c1C)CCC3,inactive: 1.24
13,Cc1nn2ncnc2c(O)c1Cl,inactive: 1.24
14,c1ccc2c(c1)CCCC2C1=NCCN1 (stereo not given),inactive: 1.29
15,CC1=C(C(=O)OC2CCCCC2)C(c2ccc(C)o2)C2=C(CCCC2=O)N1 (stereo not given),inactive: 1.26
16,CC(=O)Nc1nonc1NC1=CCCCC1,inactive: 0.987
17,CCCCCSC1=C(C#N)C(C)(C)C(C#N)C(=O)N1 (stereo not given),inactive: 1.15
18,C=CC[C@H]1CC=C[C@H](CC=C)N1C(C)=O,inactive: 1.15
19,O=S(=O)(Nc1cccnc1)c1cc(Cl)ccc1Cl,inactive: 1.29
20,CCS(=O)(=O)c1nc(-c2ccc(F)cc2)cc(C(F)(F)F)n1,inactive: 0.382
21,N#CC1=CC(C#N)=C(C#N)N/C1=C(\N)C#N,inactive: 1.08
22,Cc1ccc2nsnc2c1Br,inactive: 1.06
23,CC1CCc2c(sc(NC(=O)C3CC3)c2C(=O)OC(C)C)C1 (stereo not given),inactive: 1.23
24,O=[N+]([O-])c1cc(Oc2ccc(Br)cc2)cc(Oc2ccc(Br)cc2)c1,inactive: 1.25
25,[N+](c1ccc(N\N=C(/C2CC2)C2CC2)cc1)([O-])=O,inactive: 0.558
26,NCC1COc2ccccc2O1 (stereo not given),inactive: 1.2
27,CS(=O)(=O)NCCSc1ccc(Cl)cc1,inactive: 1.13

row,Structure (SMILES),cell-surface Lgr5 expression
1,C(=C/c1ccccc1)/C=N\N1CCN(C2c3ccccc3-c3ccccc32)CC1,inactive: 0.977
2,CC1(C)CC(=O)/C(=C/c2cccs2)C(C)(C)N1,inactive: 1.45
3,O=S(=O)(NCCC12CC3CC(CC(C3)C1)C2)c1ccc(S(=O)(=O)N2CCOCC2)cc1,inactive: 0.878
4,Cc1ccc(S(=O)(=O)CC(=O)Nc2nc3c(s2)C(=O)CC(C)(C)C3)cc1,inactive: 0.928
5,COC(=O)C(C)Nc1n[nH]c(=O)[nH]c1=O (stereo not given),inactive: 1.3
6,COc1ccc(S(N)(=O)=O)cc1,inactive: 1.12
7,CCCCCCCCCCSc1nc2c(c(=O)[nH]c(=O)n2C)n1CCCC,inactive: 1.32
8,O=C1c2ccccc2S(=O)(=O)N1CC(O)Cn1c2ccc(Br)cc2c2cc(Br)ccc21 (stereo not given),inactive: 1.05
9,CC1(C)CC(=O)C2=C(C1)SC(c1ccco1)C(C#N)=C2N (stereo not given),inactive: 1.13
10,O=c1ccn(CN2CCCCC2)c(=O)n1CN1CCCCC1,inactive: 1.01
11,Cn1c(-c2ccccc2)nn(CN2CCN(C(c3ccccc3)c3ccccc3)CC2)c1=S,inactive: 0.958
12,Clc1ccc(CN2CCN(Cc3ccc(Cl)cc3)C2c2ccncc2)cc1,inactive: 1.73
13,[O-][n+]1onc(/N=N\c2no[n+]([O-])c2-c2ccccc2)c1-c1ccccc1,inactive: 0.743
14,O=C(O)c1cc2n(n1)C(C(F)(F)F)CC(C1CC1)N2 (stereo not given),inactive: 1.05
15,CN1C(=O)C(C(=O)O)NC1=S (stereo not given),inactive: 1.16
16,O=[N+]([O-])c1cn[nH]c1N1CCN(Cc2ccc3c(c2)OCO3)CC1,inactive: 1.22
17,CC(=O)c1ccc(C(C)(C)c2ccc(C(C)(C)c3ccc(C(C)=O)s3)s2)s1,inactive: 1.11
18,O=C1CCCCCCCC(=O)OCCCCCCO1,inactive: 1.29
19,N#C/N=C(/N)c1sc(Nc2ccccc2)nc1N,inactive: 0.995
20,O=S(=O)(Nc1ccncc1)c1ccc(Br)cc1,inactive: 1.09
21,COc1ccc(-c2nn(CN3CCOCC3)c(=S)[nH]2)cc1,inactive: 1.3
22,C=C(C)CSc1nc2c(cc1C#N)CCC2,inactive: 1.07
23,C=CC[n+]1ccc(C)cc1N.[Br-],inactive: 1.2
24,Cc1nc2onc(N)c2c(C)c1Cl,inactive: 1.05
